Source: paper doi:10.1101/710202
Results are given in words; binding and its absence hold for the method and conditions named. Binding seen in cells or lysates may run through a third protein.

B1: Occludin (protein, UniProt Q28269 1-521)
chain: MSSRPFESPPPYRPDEFKPNHYAPSNDVYGGDMHVRPMLSQPAYSFYPEDEILHFYKWTSPPGVIRILSMLVIVMCIAIFGCVASTLAWDRGYGTGLMGGSIGYPYGSGFGSYGTGYGYGFGYGYGYGGYTDPRAAKGFLLAMVAFCFIAALVIFVTSVIRSDISRTRRYYLTVIILSAFLGVMMFIATIVYIMGVNPTAQASGSLYSSQIYAMCNQFYASTATGLYMDQYLYHYCVVDPQEAIAIVLGFMVIVAFALIIFFAVKTRRKMDRYDKSNILWDKEHIYDEQPPNVEEWVKNVSAGTQDMPPPPSDYVERVDSPMAYSSNGKVNDKRLYPESSYKSTPVPEVVQELPATSPADDFRQPRYSSSGHLEPPSKRAPSKGRTGRPKRLEQDHYETDYTTGGESCDELEEDWIREYPPITSDQQRQLYKRNFDTGLQEYKSLQAELDEINKELSRLDKELDDYREESEEYMAAADEYNRLKQVKGSPDYKNKRNYCKQLKSKLSHIKKMVGDYDRQKT
B2: ZO-2 (protein, UniProt Q95168 1-1174)
chain: MEELIWEQYTVTLQKDSKRGFGIAVSGGRDNPHFENGETSIVISDVLPGGPADGLLQENDRVVMVNGTPMEDVLHSFAVQQLRKSGKIAAIVVKRPRKVQLAPPQGSLPVDEDDRAFEVMDEFDGRSARSGYSERSRRSSHGGRSRSWEDSPERGRPHERAWSQERERSRGRSLERGLDHDDDYRRPRERSRGRSLERGLDHDDDYGRPGERSHGMSTDRGYDRGYDRGYDRGYDRTYSPEAEYGRRTQPDARHAGSRSRSREHLRSRSPSPELRGRPDHAGQPDSDRPIGVLLMKSKANEEYGLRLGSQIFIKQMTRTALATKDGNLHEGDIILKINGTVTENMSLTDARKLIEKSRGKLQLVVLRDSKQTLINIPSLNDSDSEIEDISEIESNRSFSPEERRQQYSDYDYHSSNEKLKERPNSREDMQNRWSRMGATPTPFKSMGDIASVVGTENSKEPRYQEEPPAPQPKAAPRTFLRPSPEDEAIYGPNTKMVRFKKGDSVGLRLAGGNDVGIFVAGIQEGTSAEQEGLQEGDQILKVNTQDFRGLVREDAVLYLLEIPKGEMVTILAQSRADVYRDILACGRGDSFFIRSHFECEKETPQSLAFSRGEVFRVVDTLYDGKLGHWLAVRIGNELEKGLIPNKSRAEQMASVQNAQRDNAGDRADFWRMRGQRSGMKKNLRKSREDLTAAVSVSTKFPAYERVLLREAGFKRPVVLFGPIADIALEKLANELPDLFQTAKTEPKDAGSEKSSGVVRLNTVRQIIEQDKHALLDVTPKAVDLLNYTQWFPIVIFFNPDSRQGVKTMRQRLNPTSNKSSRKLYDQANKLKKTCAHLFTATINLNSANDSWFGSLKDTIQHQQGEAVWVSEGKMEGMDDDPEDRMSYLTAMGADYLSCDSRLISDFEDTDGEGGAYTDNELDEPAEEPLVSSITRSSEPVQHEESIRKPSPEPRAQMRRAASRDQLRDSSPPPAFKPEPPKAKTQNREESFDISRSHDYKSNPSAVAGNEVSGASTRSCPPPIAAKPSFGRSILKPSTPVPSPESEEVGEGSEEQEGAPKSVLGKVKIFEKMDHKARLQRMQELQEAQNARIEIAQKHPDIYAVPIKTHKPDPGLSQHTSSRPPEPQKGPSRLYQDPRGSYGSDAEEEEYRQQLSEHSKRGYYSQPSRYRDTEL

Target: Par3-APEX2-EGFP
Test: co-IP

binding	Binder
no binding	B1
no binding	B2
